Results are given in words; binding and its absence hold for the method and conditions named. Binding seen in cells or lysates may run through a third protein.
Target: endogenous DHX15 (human (endogenous in HeLa)) (UniProt O43143)
Assay: co-IP; endogenous proteins, antibody on protein-G Sepharose, extracts of HeLa, HCC1809, U2OS and HEK293 cells, 2 h at 4°C, washes with 0.1 M NaCl, Western blot; sheep IgG as control; RNase A treatment of the IP in Fig 1F

Protein sequences, listed by entry. Tags and fused reporters are not part of them.
UniProt O43143: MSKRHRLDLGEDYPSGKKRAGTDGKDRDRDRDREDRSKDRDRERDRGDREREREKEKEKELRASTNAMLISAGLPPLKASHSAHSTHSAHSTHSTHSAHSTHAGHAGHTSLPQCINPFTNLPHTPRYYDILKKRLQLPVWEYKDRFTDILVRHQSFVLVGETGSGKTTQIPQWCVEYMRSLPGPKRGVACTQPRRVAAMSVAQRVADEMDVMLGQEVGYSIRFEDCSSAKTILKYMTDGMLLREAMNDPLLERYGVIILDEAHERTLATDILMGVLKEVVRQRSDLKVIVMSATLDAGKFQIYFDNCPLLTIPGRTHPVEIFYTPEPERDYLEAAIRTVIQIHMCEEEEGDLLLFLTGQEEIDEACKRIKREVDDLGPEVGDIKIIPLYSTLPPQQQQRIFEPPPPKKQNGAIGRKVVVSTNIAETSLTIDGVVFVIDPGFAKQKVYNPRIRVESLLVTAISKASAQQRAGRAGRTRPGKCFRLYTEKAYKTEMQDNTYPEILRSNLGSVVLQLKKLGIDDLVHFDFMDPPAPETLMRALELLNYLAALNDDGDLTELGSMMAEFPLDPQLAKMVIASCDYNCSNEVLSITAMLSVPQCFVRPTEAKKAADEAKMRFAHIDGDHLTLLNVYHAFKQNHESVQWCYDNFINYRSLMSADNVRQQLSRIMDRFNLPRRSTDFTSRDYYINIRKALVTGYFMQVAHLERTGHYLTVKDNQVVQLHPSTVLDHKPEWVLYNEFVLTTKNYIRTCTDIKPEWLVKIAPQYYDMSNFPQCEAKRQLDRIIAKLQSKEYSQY
UniProt O43148: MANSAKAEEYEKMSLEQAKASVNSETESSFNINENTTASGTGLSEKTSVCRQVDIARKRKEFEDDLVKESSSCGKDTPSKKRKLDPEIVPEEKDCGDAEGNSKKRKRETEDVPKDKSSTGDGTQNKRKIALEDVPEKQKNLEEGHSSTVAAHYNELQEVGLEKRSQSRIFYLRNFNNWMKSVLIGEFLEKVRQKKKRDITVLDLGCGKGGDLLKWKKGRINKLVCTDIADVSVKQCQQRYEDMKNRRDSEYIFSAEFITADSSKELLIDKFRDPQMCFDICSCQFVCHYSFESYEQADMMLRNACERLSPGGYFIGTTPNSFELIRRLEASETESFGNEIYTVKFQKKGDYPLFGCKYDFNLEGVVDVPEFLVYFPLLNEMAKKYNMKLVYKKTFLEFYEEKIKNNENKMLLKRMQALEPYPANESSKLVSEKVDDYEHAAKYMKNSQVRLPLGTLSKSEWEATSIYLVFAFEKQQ

binding: no binding
Substance: RNMT (RNA guanine-7 methyltransferase) (from UniProt O43148 1-476) (enzyme)

— PMC6071836
